These results are taken from US20160051514A1, “METHODS FOR TREATMENT OF CARDIOMYOPATHY” (THE BRIGHAM AND WOMEN'S HOSPITAL, INC., priority 2013, published 2016).

SMILES strings stand for the structures.

For the assay, the system named is IKr. As to the kind of experiment: IKr tail current in zebrafish ventricular myocytes. In kind it is cell-based. Here is the method:
The outward K^+ current kKr was measured according to the protocol of Nemtsas et al. using identical extracellular and pipette solutions.” In brief, IK, was activated by clamping the membrane potential from a holding potential of −50 mV for 1000 ms to different levels in 5 mV steps. IKr was obtained as the tail current upon repolarization to −50 mV after the 1000 ms conditioning steps. Contaminating ICaL was inhibited by nisoldipine (1 μM). Addition of the specific IKr blocker E4031 identified the tail current as IKr.^17
The outward K+ current IKr was measured according to the protocol of Nemtsas et al. (34) using identical extracellular and pipette solutions (see on-line supplement). In brief, IKr was activated by clamping the membrane potential from a holding potential of −50 mV for 1000 ms to different levels in 5 mV steps. IKr was obtained as the tail current upon repolarization to −50 mV after the 1000 ms conditioning steps. Interfering ICa,L was inhibited by nisoldipine (1 μM). Addition of the specific IKr blocker E4031 identified the tail current as IKr (35).
Measurements of IKr: Composition of extracellular solution (mmoles/Liter): 120 Na+, 5.4 K+, 0.5 Ca2+, 2 Mg2+, 130.4 Cl—, 10 HEPES, 10 glucose at pH=7.3 (adjusted with KOH), 1 mol/1 Nisoldipine. […]

As to `Cc1cccc(CCN2CCC(C(=O)c3ccc(NS(C)(=O)=O)cc3)CC2)n1` [E4031], the “Inhibition of IKr tail current” value is on record as “complete inhibition”.
